Reference: patent publication US12686686B2 (priority 2020, dated 2026)

Legend:
Format in all cases: cell-based
[1] = system: C4-2B; experiment: Cytotoxic activity test (MTT) on C4-2B prostate cancer cells; settings: Homo sapiens, C4-2B cells
Procedure: (§1) All prostate cancer cells were cultured with a RPMI-1640 medium containing 10% calf serum, 100 units of penicillin per milliliter and 100 µg/mL of streptomycin in a constant temperature incubator containing 5% carbon dioxide at a saturated humidity of 37° C.
(§2) Cells in the logarithmic phase of growth were taken and cultured in 96-well plates for 24 hours (5×10^3 cells/well), then treated with different concentrations of the compounds to be tested, and incubated by MTT method for 4 hours. The supernatant was removed by centrifugation, the MTT crystals were dissolved by adding DMSO, and the absorbance value was measured by an enzyme-linked immunosorbent assay at a wavelength of 570 nm. The cytotoxic activity of the compounds to be tested on cancer cells was expressed as IC50.

[2] = system: C4-2B/ENZR; experiment: Cytotoxic activity test (MTT) on C4-2B/ENZR prostate cancer cells; settings: Homo sapiens, C4-2B/ENZR cells
Procedure: as §1, §2

[3] = system: LNcap; experiment: Cytotoxic activity test (MTT) on LNcap prostate cancer cells; settings: Homo sapiens
Procedure: as §1, §2

[4] = system: Vcap-CRPC; experiment: Cytotoxic activity test (MTT) on Vcap-CRPC prostate cancer cells; settings: Homo sapiens
Procedure: as §1, §2

SMILES: CNC(=O)c1ccc(N2C(=S)N(c3ccc(C#N)c(C(F)(F)F)c3)C(=O)C2(C)C)cc1F [ENZ, enzalutamide, reference compound]
- IC50 [1]: 24.8 µM
- IC50 [2]: 62.3 µM
- IC50 [3]: 20.7 µM
- IC50 [4]: 57.3 µM
